Data as given in PubChem BioAssay AID504744 (Drosophila RNAi Screening Center, 2011)

Aim: 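Uncover factors, including feedback loops, that control dAkt activation in fly cells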 (primary screen)
Cell system: Drosophila Kc167 cells
Reagent: long dsRNA against Drosophila genes, 250 ng dsRNA per well of a 384-well plate
Time to read-out: 3 days of knock-down, then overnight serum-free starvation before stimulation
Conditions: bovine insulin at 387 nM for 10 minutes after 12 h without serum
Detection: 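Per-well phospho-dAkt level from an in-cell fluorescent antibody stain, divided by a DNA-dye signal; log2 residuals turned into z-scores that take cell number into account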
Rule for the call: 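Hit in the insulin screen when the two-replicate mean z-score is more extreme than plus or minus 2.5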
In all, the deposit lists about 23,000 reagents; below is an unselected part of those with a known target gene and a result. Of all reagents, 98 (0.43%) are marked active. 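Only hit calls are given; the phospho-dAkt signals, z-scores and hit direction were not deposited.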 Names joined by + are all predicted targets of the reagent. No sequences are given here.

target gene | DRSC id | activity call
CG3557 | DRSC00614 | inactive
CG31556 (retired record) | DRSC12122 | inactive
CG31556 (retired record) | DRSC22177 | inactive
CG42404 | DRSC15558 | inactive
Prps (Phosphoribosyl pyrophosphate synthetase) | DRSC08994 | inactive
Prps (Phosphoribosyl pyrophosphate synthetase) | DRSC10707 | inactive
Prps (Phosphoribosyl pyrophosphate synthetase) | DRSC10708 | inactive
CG33253 | DRSC19547 | inactive
CG33253 | DRSC20053 | inactive
Shal (Shaker cognate l) | DRSC09625 | inactive
Shal (Shaker cognate l) | DRSC11283 | inactive
VhaAC39-1 (Vacuolar H[+] ATPase AC39 subunit 1) | DRSC18242 | inactive
grsm (granny smith) | DRSC14165 | inactive
grsm (granny smith) | DRSC14843 | inactive
AlaRS-m (Alanyl-tRNA synthetase, mitochondrial) | DRSC09660 | inactive
lncRNA:sphinx (long non-coding RNA:sphinx) | DRSC17199 | inactive
Cpr72Ec (Cuticular protein 72Ec) | DRSC10449 | inactive
Frmd5 (FERM domain containing) | DRSC02802 | inactive
Mbs (Myosin binding subunit) | DRSC09414 | inactive
Mbs (Myosin binding subunit) | DRSC10525 | inactive
Mbs (Myosin binding subunit) | DRSC10553 | inactive
Debcl (Death executioner Bcl-2) | DRSC04965 | inactive
CG3909 | DRSC14150 | inactive
Polr2J (RNA polymerase II subunit J) | DRSC02995 | inactive
NSD (Nuclear receptor binding SET domain protein) | DRSC15691 | inactive
Reg-5 (Rhythmically expressed gene 5) | DRSC04647 | inactive
CG10646 | DRSC09764 | inactive
obst-H (obstructor-H) | DRSC10935 | inactive
obst-H (obstructor-H) | DRSC10940 | inactive
CG17636 | DRSC20648 | inactive
slf (schlaff) | DRSC00583 | inactive
sgl (sugarless) | DRSC21431 | inactive
CG14538 (retired record) | DRSC02396 | inactive
Pde11 (Phosphodiesterase 11) | DRSC02028 | inactive
Pde11 (Phosphodiesterase 11) | DRSC02460 | inactive
CG15506 | DRSC15047 | inactive
Ugt35A1 (UDP-glycosyltransferase family 35 member A1) | DRSC16892 | inactive
CheA84a (Chemosensory protein A 84a) | DRSC12669 | inactive
Prosbeta5R1 (Proteasome beta5 subunit-related 1) | DRSC04581 | inactive
Actn (alpha actinin) | DRSC17724 | inactive
CG9394 | DRSC04550 | inactive
CG6191 | DRSC05938 | inactive
shop (shopper) | DRSC20030 | inactive
CG14071 | DRSC02374 | inactive
yellow-g2 | DRSC08338 | inactive
Rrp1 (Recombination repair protein 1) | DRSC00784 | inactive
Grl36b (Gustatory receptor-like 36b) | DRSC01627 | inactive
CG42232 | DRSC15018 | inactive
CG42232 | DRSC15019 | inactive
CG34386 | DRSC06467 | inactive
CG34386 | DRSC06468 | inactive
RpS16 (Ribosomal protein S16) | DRSC04442 | inactive
ATPsynG (ATP synthase, subunit G) | DRSC02928 | inactive
CG15525 | DRSC15062 | inactive
Pef (Peflin) | DRSC06695 | inactive
LManIII (Lysosomal alpha-mannosidase III) | DRSC03221 | inactive
hppy (happyhour) | DRSC07014 | inactive
hppy (happyhour) | DRSC07015 | inactive
hppy (happyhour) | DRSC07016 | inactive
unc79 (uncoordinated 79) | DRSC15746 | inactive
CG17198 + CG17197 | DRSC15190 | inactive
CG17198 + CG17197 | DRSC15191 | inactive
CG3330 | DRSC15477 | inactive
grim | DRSC11352 | inactive
CG8541 | DRSC10989 | inactive
png (pan gu) | DRSC18582 | inactive
drn (doctor no) | DRSC15147 | inactive
MED6 (Mediator complex subunit 6) | DRSC16500 | inactive
zfh2 (Zn finger homeodomain 2) | DRSC17178 | active
CG14257 | DRSC14752 | inactive
CG1324 | DRSC20496 | inactive

Next part (16 carried over from the part before).
target gene | DRSC id | activity call
LManIII (Lysosomal alpha-mannosidase III) | DRSC03221 | inactive
hppy (happyhour) | DRSC07014 | inactive
hppy (happyhour) | DRSC07015 | inactive
hppy (happyhour) | DRSC07016 | inactive
unc79 (uncoordinated 79) | DRSC15746 | inactive
CG17198 + CG17197 | DRSC15190 | inactive
CG17198 + CG17197 | DRSC15191 | inactive
CG3330 | DRSC15477 | inactive
grim | DRSC11352 | inactive
CG8541 | DRSC10989 | inactive
png (pan gu) | DRSC18582 | inactive
drn (doctor no) | DRSC15147 | inactive
MED6 (Mediator complex subunit 6) | DRSC16500 | inactive
zfh2 (Zn finger homeodomain 2) | DRSC17178 | active
CG14257 | DRSC14752 | inactive
CG1324 | DRSC20496 | inactive
kipf (kipferl) | DRSC15446 | inactive
kipf (kipferl) | DRSC22871 | inactive
Pex13 (Peroxin 13) | DRSC06877 | inactive
TTLL4A (Tubulin tyrosine ligase-like 4A) | DRSC02528 | inactive
CG16739 | DRSC06621 | inactive
cag | DRSC07587 | inactive
CG8738 | DRSC07256 | inactive
CG14142 | DRSC10145 | inactive
CG14312 | DRSC14791 | inactive
mre11 (meiotic recombination 11) | DRSC03570 | inactive
mre11 (meiotic recombination 11) | DRSC22628 | inactive
Ge-1 | DRSC02938 | inactive
CG33003 | DRSC22419 | inactive
CG16863 | DRSC01892 | inactive
kni (knirps) | DRSC11891 | inactive
rib (ribbon) | DRSC07021 | inactive
Br140 (Bromodomain-containing protein, 140kD) | DRSC06755 | inactive
Cht5 (Chitinase 5) | DRSC16470 | inactive
CG10725 | DRSC09788 | inactive
JhI-21 (Juvenile hormone Inducible-21) | DRSC02161 | inactive
Coq2 (Coenzyme Q biosynthesis protein 2) | DRSC16516 | inactive
Coq2 (Coenzyme Q biosynthesis protein 2) | DRSC21366 | inactive
CG9577 | DRSC20693 | inactive
CG14995 | DRSC08452 | inactive
CG17996 + Tsen2 | DRSC02650 | inactive
sordd2 + sordd1 | DRSC20136 | inactive
CG12123 | DRSC17818 | inactive
Hira | DRSC18672 | inactive
Mapmodulin | DRSC06956 | inactive
Uggt (UDP-glucose-glycoprotein glucosyltransferase) | DRSC11315 | inactive
CG15458 | DRSC20529 | inactive
CG13465 | DRSC10011 | inactive
Mal-A8 (Maltase A8) | DRSC07234 | inactive
CG8861 | DRSC12731 | inactive
CG8861 | DRSC16449 | inactive
Tengl2 (Testis EndoG-Like 2) | DRSC21968 | inactive
ball (ballchen) | DRSC14145 | inactive
Rme-8 (Receptor mediated endocytosis 8) | DRSC07054 | inactive
Ugt49B1 (UDP-glycosyltransferase family 49 member B1) | DRSC04461 | inactive
CG3339 | DRSC13821 | inactive
CG3339 | DRSC15479 | inactive
CG11529 | DRSC09839 | inactive
CG9864 | DRSC07346 | inactive
tapas | DRSC05950 | inactive
Cpr49Af (Cuticular protein 49Af) | DRSC07202 | inactive
CG6885 | DRSC10740 | inactive
obst-G (obstructor-G) | DRSC11103 | inactive
CG18537 | DRSC06764 | inactive
temp (tempura) | DRSC18271 | inactive
KdelR (KDEL receptor) | DRSC03353 | inactive
Gale (UDP-galactose 4'-epimerase) | DRSC08234 | inactive
beta4GalNAcTB (beta1,4-N-acetylgalactosaminyltransferase B) | DRSC14869 | inactive
CG17111 | DRSC15174 | inactive
CG6425 | DRSC16038 | inactive
CG34174 | DRSC00101 | inactive
CG9459 | DRSC16496 | inactive
TM4SF (Transmembrane 4 superfamily) | DRSC04661 | inactive
ghi (ghiberti) | DRSC08985 | inactive
CG17349 | DRSC02610 | inactive
cert (ceramide transfer protein) | DRSC09674 | inactive
sei (seizure) | DRSC04713 | inactive
Rpn10 (Regulatory particle non-ATPase 10) | DRSC11876 | inactive
Frq1 (Frequenin 1) | DRSC19961 | inactive
brk (brinker) | DRSC18745 | inactive
CG9921 | DRSC20220 | inactive
sphinx1 | DRSC10993 | inactive
CG13872 | DRSC06431 | inactive
ImpL2 (Ecdysone-inducible gene L2) | DRSC08666 | inactive
CG14610 + asRNA:CR42738 | DRSC12554 | inactive
CG30460 | DRSC06559 | inactive
CG30460 | DRSC06560 | inactive
CG11666 | DRSC22379 | inactive
CG6142 | DRSC15976 | inactive
CG12607 | DRSC08287 | inactive
unc-119 | DRSC18846 | inactive
Lamtor3 (Late endosomal/lysosomal adaptor, MAPK and MTOR activator 3) | DRSC02815 | inactive
SF2 (Splicing factor 2) | DRSC16845 | inactive
ssx | DRSC18492 | inactive
CG11456 | DRSC11665 | inactive
CG14818 | DRSC18548 | inactive
stretch (retired record) | DRSC14347 | inactive
stretch (retired record) | DRSC14512 | inactive
stretch (retired record) | DRSC14541 | inactive
stretch (retired record) | DRSC14542 | inactive
stretch (retired record) | DRSC14543 | inactive
CG13575 | DRSC04211 | inactive
CG13575 | DRSC22851 | inactive
